PubChem BioAssay AID493246 | Drosophila RNAi Screening Center, 2011

- Assay: 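Genome-wide search for dsRNAs that reduce cell number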 (primary screen)
- System: Drosophila Kc and S2R+ cells
- Reagents: long dsRNA against Drosophila genes
- Read-out: 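Cell number per well after knock-down, printed as raw plate values; calls were based on per-plate z-scores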
- Direction: Kc cell number and S2R+ cell number: higher = more cells remaining
- Active means: 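Active when the per-plate z-score of cell number is 3 or more in the direction of fewer cells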
The deposit covers about 21,000 reagents; below is an unselected part of those with a known target gene and a result. Of all reagents, 429 (2%) were called active. 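Values are raw and not normalised between plates; calls rest on per-plate z-scores that were not deposited.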 A plus sign joins genes that one reagent is predicted to hit. Not stated in the record: the amount of reagent, the time to read-out.

gene	DRSC id	Kc cell number, rep 1	Kc cell number, rep 2	S2R+ cell number, rep 1	S2R+ cell number, rep 2	Call
CG42709	DRSC10277	1.44e6	1.48e6	1.36e6	1.32e6	inactive
Ugt36A1	DRSC00748	1.69e6	1.72e6	1.27e6	1.45e6	inactive
Dyrk2	DRSC03610	1.24e6	1.33e6	1.22e6	1.23e6	inactive
CG7071 + Muted	DRSC16189	1.25e6	1.45e6	1.06e6	1.13e6	inactive
CG14763	DRSC06497	1.62e6	1.57e6	1.34e6	1.54e6	inactive
Klp3A	DRSC18676	5.80e5		9.16e5		inactive
Ublcp1	DRSC14149	1.58e6	1.56e6	1.02e6	1.10e6	inactive
CG14915	DRSC02399	1.53e6	1.60e6	1.16e6	1.29e6	inactive
CG8517	DRSC07205	1.62e6	1.86e6	1.38e6	1.59e6	inactive
Pex23	DRSC10323	1.39e6	1.47e6	1.26e6	1.27e6	inactive
Pex23	DRSC10645	1.53e6	1.58e6	1.25e6	1.39e6	inactive
CG16779	DRSC15153	1.54e6	1.55e6	1.20e6	1.28e6	inactive
Actbeta	DRSC17185	1.12e6	1.24e6	1.05e6	1.06e6	inactive
Actbeta	DRSC17217	1.53e6	1.53e6	1.12e6	1.22e6	inactive
CG34167	DRSC01525	1.44e6	1.49e6	9.37e5	1.11e6	inactive
MFS3	DRSC00664	1.49e6	1.51e6	1.05e6	1.19e6	inactive
CG45002	DRSC20144	1.53e6	1.51e6	1.07e6	1.17e6	inactive
Ctns	DRSC15175	1.60e6	1.48e6	1.01e6	1.12e6	inactive
CG6985	DRSC16164	1.46e6	1.56e6	1.17e6	1.23e6	inactive
CG7791	DRSC04891	1.35e6	1.41e6	1.10e6	1.15e6	inactive
CG13062	DRSC09945	1.51e6	1.43e6	1.19e6	1.38e6	inactive
CG15611	DRSC06563	1.32e6	1.44e6	9.66e5	1.07e6	inactive
CG15611	DRSC06564	1.51e6	1.55e6	1.11e6	1.17e6	inactive
CG6345	DRSC16024	1.40e6	1.44e6	1.37e6	1.35e6	inactive
Ino80	DRSC14760	1.39e6	1.41e6	1.07e6	1.16e6	inactive
Ino80	DRSC15333	1.50e6	1.46e6	1.30e6	1.38e6	inactive
Ino80	DRSC15501	1.38e6	1.42e6	1.09e6	1.19e6	inactive
CG14538 (retired record)	DRSC02396	1.63e6	1.60e6	1.21e6	1.32e6	inactive
rg	DRSC17377	1.45e6	1.64e6	1.11e6	1.23e6	inactive
rg	DRSC17726	5.49e5		9.40e5		inactive
rg	DRSC18049	1.61e6	1.63e6	1.14e6	1.24e6	inactive
CG31717	DRSC01121	1.50e6	1.56e6	1.05e6	1.16e6	inactive
CG11663	DRSC17793	1.48e6	1.47e6	8.35e5	8.99e5	inactive
beat-Va	DRSC14192	1.78e6	1.81e6	1.31e6	1.42e6	inactive
Nelf-A	DRSC15903	1.64e6	1.68e6	1.25e6	1.34e6	inactive
sgll	DRSC15442	1.38e6	1.47e6	1.25e6	1.32e6	inactive
CG7747	DRSC07038	1.29e6	1.33e6	1.19e6	1.19e6	inactive
Cpr49Aa	DRSC07197	1.61e6	1.62e6	1.17e6	1.30e6	inactive
foi	DRSC10719	1.74e6	1.72e6	8.94e5	1.05e6	inactive
Ocho	DRSC11239	1.40e6	1.39e6	1.23e6	1.33e6	inactive
CG33270	DRSC10584	1.25e6	1.49e6	1.05e6	1.34e6	inactive
RASSF8	DRSC15707	5.28e5		7.39e5		inactive
lok	DRSC03567	1.40e6	1.47e6	1.39e6	1.42e6	inactive
ara	DRSC11322	1.38e6	1.36e6	7.72e5	8.48e5	active
CG12672	DRSC19482	1.34e6	1.28e6	9.93e5	1.15e6	inactive
mRpS35	DRSC08551	1.42e6	1.42e6	9.70e5	1.21e6	inactive
CG7763	DRSC07043	1.57e6	1.61e6	1.43e6	1.51e6	inactive
CG13437	DRSC06397	1.32e6	1.40e6	1.04e6	1.23e6	inactive
Ack	DRSC08135	1.49e6	1.33e6	9.61e5	1.17e6	inactive
CG9855	DRSC12344	1.33e6	1.45e6	1.01e6	1.16e6	inactive
Osi12	DRSC12177	1.64e6	1.79e6	1.24e6	1.34e6	inactive
mGluR	DRSC17215	1.66e6	1.75e6	1.05e6	1.15e6	inactive
CG8916	DRSC20120	1.39e6	1.40e6	1.13e6	1.16e6	inactive
CG11155	DRSC17184	1.06e6	1.39e6	1.07e6	1.04e6	inactive
CG11155	DRSC17205	4.77e5		8.76e5		inactive
Cyp312a1	DRSC11128	1.31e6	1.34e6	1.27e6	1.35e6	inactive
slim	DRSC06921	1.42e6	1.46e6	1.25e6	1.36e6	inactive
CG2291	DRSC06836	1.55e6	1.72e6	1.38e6	1.55e6	inactive
Atg5	DRSC18112	6.46e5		9.38e5		inactive
bys	DRSC18748	5.77e5		9.28e5		inactive
CG13538	DRSC04180	1.81e6	1.86e6	1.24e6	1.47e6	inactive
GstT2	DRSC06244	1.62e6	1.66e6	1.33e6	1.50e6	inactive
CG9132	DRSC20159	1.64e6	1.73e6	1.02e6	1.16e6	inactive
Ace	DRSC12959	1.36e6	1.57e6	1.01e6	1.15e6	inactive
Ace	DRSC14100	1.67e6	1.74e6	1.42e6	1.54e6	inactive
Mmp2	DRSC06698	1.66e6	1.75e6	1.36e6	1.56e6	inactive
CG31031 (retired record)	DRSC13964	1.15e6	1.58e6	1.14e6	1.16e6	inactive
HisRS	DRSC19986	1.60e6	1.54e6	1.15e6	1.29e6	inactive
CG10344	DRSC04066	1.64e6	1.67e6	1.29e6	1.46e6	inactive
CG30196	DRSC04156	1.52e6	1.60e6	1.23e6	1.39e6	inactive
CG7443	DRSC16244	1.56e6	1.76e6	1.29e6	1.34e6	inactive
CG7215 + Prx5	DRSC16214	1.61e6	1.54e6	1.10e6	1.19e6	inactive
CG7215 + Prx5	DRSC16215	1.78e6	1.70e6	1.37e6	1.36e6	inactive
CG34227	DRSC06788	1.56e6	1.59e6	1.17e6	1.31e6	inactive
CG34227	DRSC07034	1.51e6	1.57e6	1.17e6	1.34e6	inactive
